Source: US9856254B2, “Alkoxy substituted imidazoquinolines” (3M INNOVATIVE PROPERTIES COMPANY, priority 2003, dated 2018)
Some of these results come from one statement about several compounds together.

System: interferon α and/or tumor necrosis factor α
Assay: Cytokine induction in human cells (PBMC culture, ELISA/IGEN of supernatant)
Format: cell-based
Conditions: generally 30-0.014 μM, 18 to 24 hours

## CCCn1c(CCOC)nc2c(N)nc3cc(OC(=O)NC(C)C)ccc3c21 [Example 366, 4-Amino-2-(2-methoxyethyl)-1-propyl-1H-imidazo[4,5-c]quinolin-7-yl isopropylcarbamate]
  modulate cytokine biosynthesis by inducing the production of interferon α and/or tumor necrosis factor α: inducing the production of interferon α and/or tumor necrosis factor α
